The target in the assay is T1, Gst‐Pdia4 (recombinant) (UniProt P13667).
T1 sequence: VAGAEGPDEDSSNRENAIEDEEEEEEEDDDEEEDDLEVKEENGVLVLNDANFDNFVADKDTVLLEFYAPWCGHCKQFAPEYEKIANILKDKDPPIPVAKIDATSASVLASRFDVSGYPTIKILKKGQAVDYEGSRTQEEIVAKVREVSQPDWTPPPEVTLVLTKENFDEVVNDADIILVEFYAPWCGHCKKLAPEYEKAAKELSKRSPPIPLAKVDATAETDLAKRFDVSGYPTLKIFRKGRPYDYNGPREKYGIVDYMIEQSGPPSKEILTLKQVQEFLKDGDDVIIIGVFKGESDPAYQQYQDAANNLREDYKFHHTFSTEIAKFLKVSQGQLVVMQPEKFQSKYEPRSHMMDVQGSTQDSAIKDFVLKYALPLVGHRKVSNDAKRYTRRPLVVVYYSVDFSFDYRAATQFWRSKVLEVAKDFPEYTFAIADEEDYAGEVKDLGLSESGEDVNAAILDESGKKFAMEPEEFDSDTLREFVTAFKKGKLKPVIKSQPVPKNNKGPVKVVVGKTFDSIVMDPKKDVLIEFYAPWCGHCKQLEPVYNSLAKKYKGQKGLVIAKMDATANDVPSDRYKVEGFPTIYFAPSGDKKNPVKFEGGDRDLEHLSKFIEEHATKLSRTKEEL
Briefly: pull-down; recombinant Gst-Pdia4 incubated with His-tagged Nox1, Nox2, Nox3 or Nox4 for 1 h, then Gst beads; immunoblot; both purified. (Immunoblotting shows a protein as a band on a membrane.)

The chains behind the UniProt entries cited, without tags or fusion partners.
UniProt Q9Y5S8: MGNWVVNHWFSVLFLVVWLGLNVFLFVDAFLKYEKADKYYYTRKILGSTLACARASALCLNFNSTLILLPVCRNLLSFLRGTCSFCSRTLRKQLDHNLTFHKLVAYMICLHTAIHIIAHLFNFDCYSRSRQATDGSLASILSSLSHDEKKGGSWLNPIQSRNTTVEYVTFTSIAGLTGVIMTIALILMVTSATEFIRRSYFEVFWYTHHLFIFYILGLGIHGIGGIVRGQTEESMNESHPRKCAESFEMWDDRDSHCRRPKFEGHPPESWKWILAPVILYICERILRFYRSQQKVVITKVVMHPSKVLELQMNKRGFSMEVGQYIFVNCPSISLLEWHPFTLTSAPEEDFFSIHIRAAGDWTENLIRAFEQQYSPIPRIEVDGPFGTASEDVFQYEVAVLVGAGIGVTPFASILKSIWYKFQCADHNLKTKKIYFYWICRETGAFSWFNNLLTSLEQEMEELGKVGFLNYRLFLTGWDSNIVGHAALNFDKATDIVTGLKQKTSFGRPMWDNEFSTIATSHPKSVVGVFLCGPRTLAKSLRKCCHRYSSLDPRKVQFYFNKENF

The record followed here is publication PMC8495450.

Results are given in words; binding and its absence hold for the method and conditions named. Where a sequence is shown, tags or fusion partners need not be part of it.

Turning to “His‐tagged Nox1 (recombinant) (from UniProt Q9Y5S8 1-564)”, the binding result is reported as “no binding”.
